Record: PubChem BioAssay AID504793 (Drosophila RNAi Screening Center, 2011)
The screen tested about 23,000 reagents; this is an unselected part of those with a known target gene and a result. In the full data, 62 (0.27%) were called active. 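Calls come from follow-up tests whose scores are not deposited, so confirmed genes may have low counts here; counts are not normalised per plate.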 Raw values vary from plate to plate and are shown uncorrected. Entries without a mark were called inactive. Names joined by + are all predicted targets of the reagent.

- Test: 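Whole-genome screen for parts of the DNA damage checkpoint at G2/M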 (primary screen)
- System: Drosophila S2R+ cells
- Reagent: long dsRNA against Drosophila genes, about 0.25 µg dsRNA per well
- Time to read-out: 4 days of dsRNA, then 4 hours of drug before read-out
- Treatment: doxorubicin 0.5 µM for 4 hours to cause double-strand breaks, in cells also given a low, harmless dose of dsRNA against nbs to sensitise the assay
- Measurement: 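Mitotic index as the number of phospho-histone H3-positive cells in each well following doxorubicin, given as raw counts without normalisation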
- Scale: mitotic cells: higher = more cells in mitosis, weaker G2 arrest
- Hit rule: 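Genes are called active only when high mitotic counts were reproduced with independent dsRNAs and mitosis was checked for delay without damage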
- Calls: active = confirmed in follow-up tests; inactive = not confirmed

TwdlZ (TweedleZ) [DRSC19154] gave mitotic cells, replicate 1 = 36.
With knock-down of zda (zonda) [DRSC06936], the record shows mitotic cells, replicate 1 = 9.
Knock-down of zda (zonda) [DRSC25289] gave: mitotic cells, replicate 1 = 15.
For CG11226 [DRSC11639], the values are mitotic cells, replicate 1 = 5.
After knock-down of AGO1 (Argonaute-1) [DRSC05912] the results were mitotic cells, replicate 1 = 4.
After knock-down of AGO1 (Argonaute-1) [DRSC39159], the screen gave mitotic cells, replicate 1 = 12.
Depletion of etaTry (etaTrypsin) [DRSC07613] came out at: mitotic cells, replicate 1 = 2.
With knock-down of etaTry (etaTrypsin) [DRSC28998] the results were mitotic cells, replicate 1 = 3.

Records above whose target name starts with Z or z:
zda (zonda) [DRSC06936] — mitotic cells, replicate 1 = 9
zda (zonda) [DRSC25289] — mitotic cells, replicate 1 = 15

The list goes on.
Ubc4 (Ubiquitin conjugating enzyme 4) [DRSC11312] scored mitotic cells, replicate 1 = 4.
With knock-down of CG16959 [DRSC10230] the results were mitotic cells, replicate 1 = 6.
kat80 (katanin 80) [DRSC20344] gave mitotic cells, replicate 1 = 11.
After knock-down of kat80 (katanin 80) [DRSC20345], the record shows mitotic cells, replicate 1 = 14.
After knock-down of CG11857 [DRSC14411] the results were mitotic cells, replicate 1 = 11.
Knock-down of Srg2 + CG42826 [DRSC10681] resulted in: mitotic cells, replicate 1 = 10.
For Srg2 + CG42826 [DRSC10682], the values are mitotic cells, replicate 1 = 6.
Srg2 + CG42826 [DRSC24667] gave mitotic cells, replicate 1 = 4.
Depletion of Actbeta (Activin-beta) [DRSC17185] resulted in: mitotic cells, replicate 1 = 35.
Silencing of Actbeta (Activin-beta) [DRSC17217] came out at: mitotic cells, replicate 1 = 10.
For CG13300 [DRSC09974] the deposit lists mitotic cells, replicate 1 = 3.
CG13300 [DRSC25081] showed mitotic cells, replicate 1 = 5.
For mys (myospheroid) [DRSC18799], the values are mitotic cells, replicate 1 = 11.
Silencing of mys (myospheroid) [DRSC29061] came out at: mitotic cells, replicate 1 = 9.
CG6845 [DRSC08576] scored mitotic cells, replicate 1 = 3.
For CG6845 [DRSC26319], the entry reads mitotic cells, replicate 1 = 6.
